These are yes or no findings as the source states them, for the method shown. For some assays here: In cells and extracts the contact can be indirect. Some entries that bind do so weakly or less than the wild type. For some assays here: Tags and fused reporters may be left off the sequences shown.
How the values were obtained:
[1] = molecular target: T1, pRb (UniProt P13405); assay: method not described (levels of pRb-bound c-Abl in SSeCKS-overexpressing cells)
T1 sequence (looked up): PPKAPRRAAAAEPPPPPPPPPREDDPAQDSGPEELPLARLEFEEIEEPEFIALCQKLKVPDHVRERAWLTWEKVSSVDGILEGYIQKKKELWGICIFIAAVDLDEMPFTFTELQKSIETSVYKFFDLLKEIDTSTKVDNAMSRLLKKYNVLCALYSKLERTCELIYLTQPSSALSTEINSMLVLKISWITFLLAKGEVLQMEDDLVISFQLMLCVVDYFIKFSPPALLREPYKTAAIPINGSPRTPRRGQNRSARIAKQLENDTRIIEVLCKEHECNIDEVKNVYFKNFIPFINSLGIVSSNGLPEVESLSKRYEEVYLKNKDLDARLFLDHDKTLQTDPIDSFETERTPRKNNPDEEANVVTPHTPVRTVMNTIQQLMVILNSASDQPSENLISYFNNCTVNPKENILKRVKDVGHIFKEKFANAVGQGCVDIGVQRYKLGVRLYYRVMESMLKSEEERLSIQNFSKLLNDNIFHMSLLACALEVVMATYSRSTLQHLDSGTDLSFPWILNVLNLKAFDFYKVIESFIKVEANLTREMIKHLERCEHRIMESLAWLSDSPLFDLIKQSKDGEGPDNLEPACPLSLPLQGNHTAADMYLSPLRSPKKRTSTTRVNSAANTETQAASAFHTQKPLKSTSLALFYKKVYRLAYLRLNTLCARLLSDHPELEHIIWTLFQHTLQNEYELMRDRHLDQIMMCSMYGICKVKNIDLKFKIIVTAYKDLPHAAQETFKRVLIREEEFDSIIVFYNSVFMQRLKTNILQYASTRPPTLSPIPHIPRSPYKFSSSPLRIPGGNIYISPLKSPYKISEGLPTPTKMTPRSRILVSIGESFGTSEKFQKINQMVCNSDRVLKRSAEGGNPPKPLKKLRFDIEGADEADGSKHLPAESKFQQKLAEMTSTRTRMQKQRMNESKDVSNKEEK

Amino acid sequences for entries named in this document (tags omitted).
UniProt P25322: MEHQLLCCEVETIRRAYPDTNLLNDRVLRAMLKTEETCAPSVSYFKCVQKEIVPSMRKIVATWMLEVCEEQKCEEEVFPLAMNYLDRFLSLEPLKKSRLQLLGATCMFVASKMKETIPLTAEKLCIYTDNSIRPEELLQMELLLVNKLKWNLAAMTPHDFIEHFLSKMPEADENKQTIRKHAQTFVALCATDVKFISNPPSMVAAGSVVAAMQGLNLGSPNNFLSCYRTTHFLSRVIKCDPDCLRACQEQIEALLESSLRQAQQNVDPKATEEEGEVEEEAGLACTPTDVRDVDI
UniProt Q61457: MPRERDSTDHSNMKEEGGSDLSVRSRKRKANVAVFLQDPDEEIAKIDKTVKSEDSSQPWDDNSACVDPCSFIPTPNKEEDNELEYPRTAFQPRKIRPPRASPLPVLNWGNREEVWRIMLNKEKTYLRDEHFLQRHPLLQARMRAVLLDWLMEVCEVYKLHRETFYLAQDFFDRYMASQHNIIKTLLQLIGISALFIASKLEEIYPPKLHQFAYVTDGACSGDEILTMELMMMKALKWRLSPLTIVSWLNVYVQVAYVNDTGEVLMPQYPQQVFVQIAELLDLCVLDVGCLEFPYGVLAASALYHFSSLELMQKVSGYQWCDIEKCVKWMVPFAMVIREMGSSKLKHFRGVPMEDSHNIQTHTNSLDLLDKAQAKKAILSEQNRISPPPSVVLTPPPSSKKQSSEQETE
UniProt P00520: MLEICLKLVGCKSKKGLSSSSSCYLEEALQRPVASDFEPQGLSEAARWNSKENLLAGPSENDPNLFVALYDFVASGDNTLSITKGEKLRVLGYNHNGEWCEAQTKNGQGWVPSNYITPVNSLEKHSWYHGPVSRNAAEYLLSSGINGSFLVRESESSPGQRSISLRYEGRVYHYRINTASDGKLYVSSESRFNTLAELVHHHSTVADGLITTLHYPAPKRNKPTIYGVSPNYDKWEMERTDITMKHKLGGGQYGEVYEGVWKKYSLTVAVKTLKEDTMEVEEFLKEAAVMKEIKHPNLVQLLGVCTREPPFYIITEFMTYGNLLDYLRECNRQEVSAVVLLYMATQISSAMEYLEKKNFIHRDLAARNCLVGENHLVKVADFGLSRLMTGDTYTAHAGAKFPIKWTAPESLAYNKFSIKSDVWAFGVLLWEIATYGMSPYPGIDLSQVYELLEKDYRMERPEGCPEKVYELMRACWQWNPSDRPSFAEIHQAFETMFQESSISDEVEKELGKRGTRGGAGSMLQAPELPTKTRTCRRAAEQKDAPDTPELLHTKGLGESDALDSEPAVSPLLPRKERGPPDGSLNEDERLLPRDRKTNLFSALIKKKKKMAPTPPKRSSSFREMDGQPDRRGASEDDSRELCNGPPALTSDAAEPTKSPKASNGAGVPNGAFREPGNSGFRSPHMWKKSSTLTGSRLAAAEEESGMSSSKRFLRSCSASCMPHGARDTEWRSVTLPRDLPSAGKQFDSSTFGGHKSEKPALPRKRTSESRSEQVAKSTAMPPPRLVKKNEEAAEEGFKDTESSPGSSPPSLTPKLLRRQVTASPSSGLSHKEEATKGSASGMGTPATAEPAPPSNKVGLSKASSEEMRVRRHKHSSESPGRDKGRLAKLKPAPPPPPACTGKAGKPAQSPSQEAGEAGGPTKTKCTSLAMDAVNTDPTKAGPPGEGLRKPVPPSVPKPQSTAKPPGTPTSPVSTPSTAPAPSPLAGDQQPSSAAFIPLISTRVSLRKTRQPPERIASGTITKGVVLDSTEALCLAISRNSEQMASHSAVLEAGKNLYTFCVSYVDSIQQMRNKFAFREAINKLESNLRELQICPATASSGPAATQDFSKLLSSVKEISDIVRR

[2] = molecular target: cyclin D1 (endogenous and ectopic) of S24, S24/D1, S24/V and V3 cells (UniProt P25322); assay: GST pull-down with mutated GST-SSeCKS2
[3] = molecular target: cellular cyclin E (UniProt Q61457); assay: GST pull-down from cell lysates, blot stripped and reprobed with cyclin E-specific antibody
[4] = molecular target: cyclin D1 (endogenous and ectopic) of S24, S24/D1, S24/V and V3 cells (UniProt P25322); assay: GST pull-down from cell lysates, anti-cyclin D1 immunoblot

Molecule: c-Abl protein (from UniProt P00520 1-1123) (enzyme)
- binding [1]: binds

B1: GST-SSeCKS2 with first L to S (protein, not shown: a dimerising Fc or GST)
chain: AHQEVVAEVHVSTVEKTEEEQGGGGEAEGGVVVEGTGESLPPEKLAEPQEVPQEAEPAEELMKSREMCVSGGDHTQLTDLSPEEKTLPKHPEGIVSEVEMLSSQERIKVQGSPLKKSFSSSGLKKLSGKKQKGKRGGGGDEEPGEYQHIHTESPESADEQKGES
- binding [2]: binds

B2: GST-SSeCKS2 with second L to S (protein, not shown: a dimerising Fc or GST)
chain: AHQEVVAEVHVSTVEKTEEEQGGGGEAEGGVVVEGTGESLPPEKLAEPQEVPQEAEPAEELMKSREMCVSGGDHTQLTDLSPEEKTLPKHPEGIVSEVEMLSSQERIKVQGSPLKKLFSSSGLKKSSGKKQKGKRGGGGDEEPGEYQHIHTESPESADEQKGES
- binding [2]: binds

B3: GST-SSeCKS-2 (protein, not shown: a dimerising Fc or GST)
chain: AHQEVVAEVHVSTVEKTEEEQGGGGEAEGGVVVEGTGESLPPEKLAEPQEVPQEAEPAEELMKSREMCVSGGDHTQLTDLSPEEKTLPKHPEGIVSEVEMLSSQERIKVQGSPLKKLFSSSGLKKLSGKKQKGKRGGGGDEEPGEYQHIHTESPESADEQKGES
- binding [3]: binds
- binding [4]: binds
